Measurements reported in PubChem BioAssay AID1159578 (Peter MacCallum Cancer Centre, 2015).
Aim: 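Genome-wide hunt for genes controlling movement of lymphatic endothelial cells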 (primary screen). System: human lymphatic endothelial cells. Knock-down reagent: siRNA pool against human genes, 40 nM. Duration: 48 h after transfection. Measurement: 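Cells stained with dye and imaged after a scratch; covered wound area and nuclei counted, duplicates averaged, migration set against mock wells and turned into a robust z-score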. Reading the numbers: migration robust z-score: higher = faster migration into the scratch; nuclei per well: higher = more cells in the well. Active means: 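Pools averaging fewer than 3300 nuclei are never called; remaining pools count as changed when migration robust z lies outside -2 to 2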. Meaning of the calls: active = migration changed; inactive = no migration change, or too few cells.
The deposit covers about 18,000 reagents; shown is a random part of them. About 1,030 of all reagents (5.7%) were called active. 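Inactive calls also include pools with fewer than 3300 nuclei, whose migration was not assessed.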 Raw values vary from plate to plate and are shown uncorrected. Unmarked entries are inactive. Further read-outs or replicates are left out here. Reagent sequences are not shown.

no.	Target gene	migration robust z-score	migration class with cell-count check	nuclei per well, duplicate mean
1	RPL32	-3.01	under 3300 nuclei; migration not judged	2347
2	GNB1L	-0.62	migration z between -2 and 2; enough cells	5804
3	VAMP8	-1.15	migration z between -2 and 2; enough cells	5018
4	LYPD6B	1.1	migration z between -2 and 2; enough cells	5152
5	TMEM45A	1.21	migration z between -2 and 2; enough cells	5870
6	ATP5ME	-3.83	under 3300 nuclei; migration not judged	2436
7	PPME1	-2.21 (active)	migration z below -2; enough cells	4132
8	KCNA10	0.5	migration z between -2 and 2; enough cells	6132
9	MFSD2A	-0.06	migration z between -2 and 2; enough cells	5754
10	VPS41	-0.29	migration z between -2 and 2; enough cells	5553
11	CRB1	0.66	migration z between -2 and 2; enough cells	6246
12	BNC1	0.37	migration z between -2 and 2; enough cells	7176
13	RND3	0.13	migration z between -2 and 2; enough cells	4722
14	MYBL1	-1.66	migration z between -2 and 2; enough cells	4494
15	S1PR1	-2.36 (active)	migration z below -2; enough cells	5290
16	FXN	-0.2	migration z between -2 and 2; enough cells	6947
17	GRM2	0.08	migration z between -2 and 2; enough cells	5364
18	FNBP4	0.19	migration z between -2 and 2; enough cells	5336
19	IRF3	-0.55	migration z between -2 and 2; enough cells	3552
20	OR51G1	2.17 (active)	migration z above 2; enough cells	5527
21	HCAR2	0.68	migration z between -2 and 2; enough cells	4942
22	GNPDA2	0.31	migration z between -2 and 2; enough cells	5844
23	STRA6	1.8	migration z between -2 and 2; enough cells	5764
24	RCC2	0.43	migration z between -2 and 2; enough cells	5988
25	SLC1A5	-0.27	migration z between -2 and 2; enough cells	6556
26	UBTFL7	0.68	migration z between -2 and 2; enough cells	5687
27	ARRDC4	0.22	migration z between -2 and 2; enough cells	6482
28	CX3CR1	0.32	migration z between -2 and 2; enough cells	5480
29	SNX9	-3.27	under 3300 nuclei; migration not judged	3234
30	ZNF41	-1.62	migration z between -2 and 2; enough cells	3630
31	GINS4	-0.7	migration z between -2 and 2; enough cells	5963
32	CHLSN	0.32	migration z between -2 and 2; enough cells	6020

Next part (3 carried over from the part before).
no.	Target gene	migration robust z-score	migration class with cell-count check	nuclei per well, duplicate mean
30	ZNF41	-1.62	migration z between -2 and 2; enough cells	3630
31	GINS4	-0.7	migration z between -2 and 2; enough cells	5963
32	CHLSN	0.32	migration z between -2 and 2; enough cells	6020
33	POU2AF2	-0.05	migration z between -2 and 2; enough cells	5809
34	HDAC7	0.64	migration z between -2 and 2; enough cells	5801
35	ATOH7	-0.17	migration z between -2 and 2; enough cells	6385
36	ATG2B	-0.82	migration z between -2 and 2; enough cells	5322
37	CHP1	-0.52	migration z between -2 and 2; enough cells	5822
38	MMEL1	1.48	migration z between -2 and 2; enough cells	5782
39	UGT1A1	0.13	migration z between -2 and 2; enough cells	4236
40	EDIL3	0.47	migration z between -2 and 2; enough cells	5530
41	BCL11B	0.62	migration z between -2 and 2; enough cells	5728
42	MYO1B	-0.76	migration z between -2 and 2; enough cells	5762
43	MRPS26	-0.33	migration z between -2 and 2; enough cells	6002
44	NCBP1	0.44	migration z between -2 and 2; enough cells	5186
45	TFG	0.06	migration z between -2 and 2; enough cells	5056
46	POU3F1	-1.28	migration z between -2 and 2; enough cells	6095
47	SIRAL1	-0.74	migration z between -2 and 2; enough cells	5346
48	SLFN13	-1.35	migration z between -2 and 2; enough cells	4423
49	ERBB3	-4.54	under 3300 nuclei; migration not judged	2918
50	PTPRS	-1.4	migration z between -2 and 2; enough cells	4986
51	MC2R	-0.05	migration z between -2 and 2; enough cells	5728
52	INSL3	1.01	migration z between -2 and 2; enough cells	5904
53	ANKRD13C	-2.66 (active)	migration z below -2; enough cells	5942
54	RPL29	1.23	migration z between -2 and 2; enough cells	6098
55	PRKRA	0.96	migration z between -2 and 2; enough cells	5747
56	SLC5A6	-0.42	migration z between -2 and 2; enough cells	6899
57	CSKMT	0.5	migration z between -2 and 2; enough cells	4968
